Measured values reported in the supplement of paper PMC10849652.
The other results are listed elsewhere or left out.

Chains of the proteins cited; added tags and fusions are not shown. Lines headed by an entry give the natural chain unless they say otherwise; changes in a name come on top.
UniProt Q8NB78: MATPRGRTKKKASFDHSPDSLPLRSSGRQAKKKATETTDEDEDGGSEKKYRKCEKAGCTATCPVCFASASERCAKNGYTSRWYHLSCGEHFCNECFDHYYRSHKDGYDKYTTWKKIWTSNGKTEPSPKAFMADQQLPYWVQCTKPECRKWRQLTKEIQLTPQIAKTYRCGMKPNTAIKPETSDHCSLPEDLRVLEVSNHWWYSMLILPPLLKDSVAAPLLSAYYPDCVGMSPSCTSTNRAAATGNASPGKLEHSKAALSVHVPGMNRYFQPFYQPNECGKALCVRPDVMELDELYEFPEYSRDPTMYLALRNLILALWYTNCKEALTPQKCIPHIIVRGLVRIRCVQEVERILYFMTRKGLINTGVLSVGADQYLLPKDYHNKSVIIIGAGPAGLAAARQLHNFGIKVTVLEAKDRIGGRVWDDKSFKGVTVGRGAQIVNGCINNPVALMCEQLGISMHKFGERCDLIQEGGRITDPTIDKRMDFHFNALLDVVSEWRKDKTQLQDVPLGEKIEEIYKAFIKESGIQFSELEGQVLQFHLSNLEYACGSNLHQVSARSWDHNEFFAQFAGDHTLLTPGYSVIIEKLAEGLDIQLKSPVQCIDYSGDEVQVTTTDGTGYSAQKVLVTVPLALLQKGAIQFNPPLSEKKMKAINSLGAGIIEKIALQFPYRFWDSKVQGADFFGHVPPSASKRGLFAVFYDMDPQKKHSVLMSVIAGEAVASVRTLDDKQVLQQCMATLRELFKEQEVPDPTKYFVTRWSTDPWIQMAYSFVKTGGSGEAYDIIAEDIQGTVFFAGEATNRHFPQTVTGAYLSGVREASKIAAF
UniProt P46940, whole entry, looked up: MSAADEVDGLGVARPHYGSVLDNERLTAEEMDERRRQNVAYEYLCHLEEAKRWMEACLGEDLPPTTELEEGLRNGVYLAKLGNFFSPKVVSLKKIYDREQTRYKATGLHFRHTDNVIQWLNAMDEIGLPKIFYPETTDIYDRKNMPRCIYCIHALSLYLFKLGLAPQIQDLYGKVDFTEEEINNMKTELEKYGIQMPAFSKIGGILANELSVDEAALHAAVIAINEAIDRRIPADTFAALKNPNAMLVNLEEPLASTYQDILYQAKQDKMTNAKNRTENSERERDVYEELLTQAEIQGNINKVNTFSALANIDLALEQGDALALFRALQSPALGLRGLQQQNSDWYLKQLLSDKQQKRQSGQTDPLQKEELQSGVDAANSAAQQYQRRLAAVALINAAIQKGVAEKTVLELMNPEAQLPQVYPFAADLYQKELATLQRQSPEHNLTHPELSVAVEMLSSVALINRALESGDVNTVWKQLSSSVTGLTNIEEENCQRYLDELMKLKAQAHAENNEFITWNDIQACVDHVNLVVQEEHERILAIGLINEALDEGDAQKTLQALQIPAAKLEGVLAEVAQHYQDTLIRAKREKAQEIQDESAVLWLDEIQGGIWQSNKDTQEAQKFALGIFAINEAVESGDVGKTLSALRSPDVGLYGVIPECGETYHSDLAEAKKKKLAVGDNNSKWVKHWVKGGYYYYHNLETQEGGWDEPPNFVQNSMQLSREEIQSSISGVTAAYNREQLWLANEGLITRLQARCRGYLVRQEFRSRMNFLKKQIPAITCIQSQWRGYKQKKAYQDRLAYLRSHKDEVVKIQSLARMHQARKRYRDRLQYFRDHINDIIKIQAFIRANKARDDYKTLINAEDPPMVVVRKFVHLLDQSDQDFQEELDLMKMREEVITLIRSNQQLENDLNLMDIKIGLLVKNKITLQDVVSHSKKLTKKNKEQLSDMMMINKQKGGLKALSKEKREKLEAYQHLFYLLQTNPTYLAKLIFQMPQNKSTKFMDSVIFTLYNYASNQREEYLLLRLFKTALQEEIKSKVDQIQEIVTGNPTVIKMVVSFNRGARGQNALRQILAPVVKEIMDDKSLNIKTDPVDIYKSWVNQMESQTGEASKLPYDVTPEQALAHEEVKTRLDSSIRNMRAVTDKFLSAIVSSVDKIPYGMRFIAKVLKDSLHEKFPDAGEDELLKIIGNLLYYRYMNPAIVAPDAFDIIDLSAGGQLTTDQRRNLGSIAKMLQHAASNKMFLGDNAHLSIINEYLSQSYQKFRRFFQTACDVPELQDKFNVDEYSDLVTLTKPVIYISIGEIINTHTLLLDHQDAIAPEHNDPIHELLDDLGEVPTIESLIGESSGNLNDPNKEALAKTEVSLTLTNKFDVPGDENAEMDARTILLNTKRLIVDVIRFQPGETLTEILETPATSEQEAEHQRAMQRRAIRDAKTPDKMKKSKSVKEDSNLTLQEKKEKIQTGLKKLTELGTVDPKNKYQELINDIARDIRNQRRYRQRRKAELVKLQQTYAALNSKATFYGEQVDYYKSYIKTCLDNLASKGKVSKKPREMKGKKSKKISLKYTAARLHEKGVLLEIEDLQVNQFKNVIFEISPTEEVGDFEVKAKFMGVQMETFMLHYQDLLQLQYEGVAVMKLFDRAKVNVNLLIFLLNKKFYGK
UniProt Q96SY0, whole entry, looked up: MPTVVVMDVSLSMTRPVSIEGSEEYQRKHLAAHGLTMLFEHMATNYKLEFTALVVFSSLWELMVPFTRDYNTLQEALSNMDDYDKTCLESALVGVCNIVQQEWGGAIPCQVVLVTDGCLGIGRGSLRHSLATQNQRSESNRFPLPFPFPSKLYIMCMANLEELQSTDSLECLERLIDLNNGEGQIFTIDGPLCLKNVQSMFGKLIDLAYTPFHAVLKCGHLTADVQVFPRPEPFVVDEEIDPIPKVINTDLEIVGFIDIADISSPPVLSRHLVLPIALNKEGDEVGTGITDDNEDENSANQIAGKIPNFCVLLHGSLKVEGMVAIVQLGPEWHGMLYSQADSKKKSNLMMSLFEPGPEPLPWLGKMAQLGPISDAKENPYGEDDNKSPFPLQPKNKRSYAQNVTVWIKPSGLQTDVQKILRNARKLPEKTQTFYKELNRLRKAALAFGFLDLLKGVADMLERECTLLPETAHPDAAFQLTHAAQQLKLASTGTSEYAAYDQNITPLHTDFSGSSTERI
UniProt P51617, whole entry, looked up: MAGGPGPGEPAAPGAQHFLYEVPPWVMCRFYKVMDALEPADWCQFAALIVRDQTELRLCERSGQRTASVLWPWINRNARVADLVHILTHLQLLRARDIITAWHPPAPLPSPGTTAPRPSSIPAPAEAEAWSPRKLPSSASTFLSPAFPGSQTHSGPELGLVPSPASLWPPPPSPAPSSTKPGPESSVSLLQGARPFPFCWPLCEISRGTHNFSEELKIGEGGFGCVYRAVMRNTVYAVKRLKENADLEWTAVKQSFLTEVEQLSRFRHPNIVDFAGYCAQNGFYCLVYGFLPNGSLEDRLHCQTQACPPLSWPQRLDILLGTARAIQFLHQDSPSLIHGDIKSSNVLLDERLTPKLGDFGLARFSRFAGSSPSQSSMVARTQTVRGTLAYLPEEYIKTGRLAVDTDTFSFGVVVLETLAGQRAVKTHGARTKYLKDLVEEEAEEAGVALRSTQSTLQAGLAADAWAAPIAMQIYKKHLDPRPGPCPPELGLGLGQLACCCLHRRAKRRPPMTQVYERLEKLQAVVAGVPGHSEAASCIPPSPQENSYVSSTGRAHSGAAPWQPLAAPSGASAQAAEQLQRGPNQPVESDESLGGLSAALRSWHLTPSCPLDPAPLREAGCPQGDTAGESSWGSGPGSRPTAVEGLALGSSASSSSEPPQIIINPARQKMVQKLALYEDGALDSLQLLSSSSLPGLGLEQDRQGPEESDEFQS
UniProt P06756, whole entry, looked up: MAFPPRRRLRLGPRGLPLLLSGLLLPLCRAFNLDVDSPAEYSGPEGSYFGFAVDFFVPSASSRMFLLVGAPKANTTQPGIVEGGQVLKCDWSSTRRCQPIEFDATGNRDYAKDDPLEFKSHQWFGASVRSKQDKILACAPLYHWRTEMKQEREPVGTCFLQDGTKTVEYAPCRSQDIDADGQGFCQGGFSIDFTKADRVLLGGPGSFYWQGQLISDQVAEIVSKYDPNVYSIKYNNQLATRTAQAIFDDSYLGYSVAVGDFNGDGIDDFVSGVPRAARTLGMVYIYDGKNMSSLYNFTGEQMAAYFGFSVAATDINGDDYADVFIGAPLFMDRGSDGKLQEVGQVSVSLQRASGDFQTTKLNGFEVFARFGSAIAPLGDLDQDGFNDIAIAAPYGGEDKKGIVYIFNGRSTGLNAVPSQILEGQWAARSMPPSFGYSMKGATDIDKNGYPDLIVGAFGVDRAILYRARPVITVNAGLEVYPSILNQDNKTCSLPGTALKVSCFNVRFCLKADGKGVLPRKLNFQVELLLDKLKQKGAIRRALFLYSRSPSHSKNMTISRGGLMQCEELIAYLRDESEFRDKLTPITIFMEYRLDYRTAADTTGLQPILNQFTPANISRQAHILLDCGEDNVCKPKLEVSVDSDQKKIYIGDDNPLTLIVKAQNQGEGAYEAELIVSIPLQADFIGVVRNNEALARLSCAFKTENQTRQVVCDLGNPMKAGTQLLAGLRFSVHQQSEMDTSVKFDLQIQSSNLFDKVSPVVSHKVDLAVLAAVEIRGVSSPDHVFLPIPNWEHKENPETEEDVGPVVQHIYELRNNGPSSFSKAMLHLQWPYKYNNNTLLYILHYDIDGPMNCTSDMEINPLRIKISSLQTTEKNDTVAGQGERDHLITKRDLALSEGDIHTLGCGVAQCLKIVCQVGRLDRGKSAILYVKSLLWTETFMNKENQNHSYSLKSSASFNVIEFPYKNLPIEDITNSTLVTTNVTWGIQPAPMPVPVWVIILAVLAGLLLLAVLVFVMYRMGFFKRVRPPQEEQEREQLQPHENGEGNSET
UniProt Q9H1B7, whole entry, looked up: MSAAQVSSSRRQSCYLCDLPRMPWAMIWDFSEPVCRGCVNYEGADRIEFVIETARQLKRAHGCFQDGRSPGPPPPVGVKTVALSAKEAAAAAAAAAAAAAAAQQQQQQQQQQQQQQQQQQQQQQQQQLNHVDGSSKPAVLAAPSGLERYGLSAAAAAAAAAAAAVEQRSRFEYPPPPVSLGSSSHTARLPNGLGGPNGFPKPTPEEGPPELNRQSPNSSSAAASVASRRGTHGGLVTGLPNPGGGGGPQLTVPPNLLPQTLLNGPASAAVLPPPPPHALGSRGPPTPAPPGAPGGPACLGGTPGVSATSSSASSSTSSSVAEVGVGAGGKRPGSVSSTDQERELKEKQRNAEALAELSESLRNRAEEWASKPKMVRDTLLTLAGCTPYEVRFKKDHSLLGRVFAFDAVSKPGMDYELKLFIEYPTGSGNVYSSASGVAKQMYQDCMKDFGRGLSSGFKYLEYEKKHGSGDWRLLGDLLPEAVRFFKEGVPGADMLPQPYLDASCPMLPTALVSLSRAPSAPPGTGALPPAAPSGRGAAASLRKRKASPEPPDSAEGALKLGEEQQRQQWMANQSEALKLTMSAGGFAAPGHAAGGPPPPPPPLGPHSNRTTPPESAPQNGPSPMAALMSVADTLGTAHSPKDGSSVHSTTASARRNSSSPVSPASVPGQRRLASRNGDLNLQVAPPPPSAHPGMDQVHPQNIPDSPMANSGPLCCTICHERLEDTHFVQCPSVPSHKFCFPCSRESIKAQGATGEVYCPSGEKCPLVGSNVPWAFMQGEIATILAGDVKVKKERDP
UniProt Q9BUE6: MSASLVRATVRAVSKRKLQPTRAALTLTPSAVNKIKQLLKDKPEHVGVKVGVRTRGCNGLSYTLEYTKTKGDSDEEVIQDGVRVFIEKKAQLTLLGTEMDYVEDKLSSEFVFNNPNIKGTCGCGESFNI
UniProt Q8TB96: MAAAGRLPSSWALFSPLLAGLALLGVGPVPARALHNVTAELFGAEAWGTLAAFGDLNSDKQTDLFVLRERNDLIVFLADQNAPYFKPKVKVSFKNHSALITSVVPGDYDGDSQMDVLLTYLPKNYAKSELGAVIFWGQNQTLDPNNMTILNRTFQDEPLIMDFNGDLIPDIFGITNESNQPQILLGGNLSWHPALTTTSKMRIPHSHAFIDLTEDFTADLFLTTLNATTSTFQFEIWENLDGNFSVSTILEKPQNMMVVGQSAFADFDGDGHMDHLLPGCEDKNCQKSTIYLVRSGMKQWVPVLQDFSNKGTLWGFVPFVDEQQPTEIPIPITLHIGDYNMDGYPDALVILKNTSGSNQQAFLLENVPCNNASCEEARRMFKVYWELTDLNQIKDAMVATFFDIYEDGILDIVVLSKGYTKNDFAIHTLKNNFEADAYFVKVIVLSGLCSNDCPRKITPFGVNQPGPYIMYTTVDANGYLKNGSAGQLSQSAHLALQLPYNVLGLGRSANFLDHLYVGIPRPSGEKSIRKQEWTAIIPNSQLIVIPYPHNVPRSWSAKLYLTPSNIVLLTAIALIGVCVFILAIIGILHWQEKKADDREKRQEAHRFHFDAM
UniProt Q9ULR0: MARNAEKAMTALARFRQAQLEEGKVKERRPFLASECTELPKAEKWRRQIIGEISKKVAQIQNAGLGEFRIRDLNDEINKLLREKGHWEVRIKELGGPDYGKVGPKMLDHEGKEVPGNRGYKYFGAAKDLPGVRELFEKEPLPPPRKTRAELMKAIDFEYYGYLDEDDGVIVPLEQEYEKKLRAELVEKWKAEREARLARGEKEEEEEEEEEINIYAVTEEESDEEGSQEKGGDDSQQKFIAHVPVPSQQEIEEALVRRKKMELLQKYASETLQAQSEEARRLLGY

These targets were tested with CNC(=O)c1ccc(Nc2ncc(C(F)(F)F)c(NCc3nccnc3N(C)S(C)(=O)=O)n2)cc1 [defactinib] (assay: log2 fold change, soluble protein after heating vs DMSO (PISA); higher = thermal stabilisation; K562 lysate, 10 uM; active = over 0.2 and 3.5 SD of the protein, either way, in both replicates (recomputed)).
How it was run: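 A 30 min treatment with 10 μM compound was applied to crude K562 extract at 1 mg/mL protein in PBS pH 7.4 with 1 mM MgCl2. Heating for 3 min spanned 48°C-58°C, after which aliquots were pooled, adjusted to 0.5% NP-40 at 4°C and spun at 21,000xg for 90 min. TMTpro 16plex LC-MS/MS of the supernatant, with channel sums equalised, gave values recorded as log-two fold change in thermal stability against solvent controls, from duplicates.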

Row | Target | log2 fold change
1 | ISOC2 (UniProt Q96AB3) | inactive: 0.121
2 | INTS5 (UniProt Q6P9B9) | inactive: 0.017
3 | ITPKA (UniProt P23677) | inactive: 0.017
4 | IPO11 isoform 2 (UniProt Q9UI26) | inactive: 0.005
5 | JAGN1 (UniProt Q8N5M9) | inactive: 0.007
6 | KDM1B (UniProt Q8NB78) | inactive: 0.088
7 | KDELR2 (UniProt P33947) | inactive: -0.069
8 | INTS9 (UniProt Q9NV88) | inactive: -0.06
9 | KCTD10 (UniProt Q9H3F6) | inactive: -0.096
10 | ISYNA1 (UniProt Q9NPH2) | inactive: -0.017
11 | ISCU (UniProt Q9H1K1) | inactive: 0.012
12 | IQGAP1 (UniProt P46940) | inactive: -0.046
13 | INTS14 (UniProt Q96SY0) | inactive: 0.025
14 | KDM1A (UniProt O60341) | inactive: -0.003
15 | KBTBD2 (UniProt Q8IY47) | inactive: -0.013
16 | IQSEC1 (UniProt Q6DN90) | inactive: 0.023
17 | IRAK1 (UniProt P51617) | inactive: 0.086
18 | ITGAV (UniProt P06756) | inactive: 0
19 | KCTD9 (UniProt Q7L273) | inactive: 0.026
20 | IRF2BPL (UniProt Q9H1B7) | inactive: -0.007

Row | Target | log2 fold change
21 | IRF2BP1 (UniProt Q8IU81) | inactive: 0.045
22 | ISOC1 (UniProt Q96CN7) | inactive: 0.013
23 | KAT7 (UniProt O95251) | inactive: 0.008
24 | JPT1 (UniProt Q9UK76) | inactive: -0.01
25 | KCTD5 (UniProt Q9NXV2) | inactive: -0.001
26 | INTS7 (UniProt Q9NVH2) | inactive: -0.125
27 | IRF3 (UniProt Q14653) | inactive: -0.006
28 | ITPK1 (UniProt Q13572) | inactive: -0.036
29 | KAT8 (UniProt Q9H7Z6) | inactive: -0.076
30 | IPO5 isoform 3 (UniProt O00410) | inactive: -0.009
31 | ISCA1 isoform 2 (UniProt Q9BUE6) | inactive: 0.092
32 | JPT2 isoform 3 (UniProt Q9H910) | inactive: 0.008
33 | KCTD20 (UniProt Q7Z5Y7) | inactive: -0.041
34 | ITFG1 (UniProt Q8TB96) | inactive: 0.012
35 | KANSL3 (UniProt Q9P2N6) | inactive: 0.172
36 | KCT2 (UniProt Q8NC54) | inactive: -0.012
37 | JUND (UniProt P17535) | inactive: 0.064
38 | ISY1 isoform 1 (UniProt Q9ULR0) | inactive: 0.082
39 | ITGB1 (UniProt P05556) | inactive: 0.016

Shown in markdown: entries from further up

| Row | Target | log2 fold change |
| --- | --- | --- |
| 23 | KAT7 (UniProt O95251) | inactive: 0.008 |
| 24 | JPT1 (UniProt Q9UK76) | inactive: -0.01 |
